Data published in patent publication US20090123907A1 (priority 2004, published 2009).

Tested on: plasma proteins
Assay: Protein resistance to glass beads
Details: 0.4% sodium citrate, 2% lysine citrate
From the text: The above experiment was repeated using glass beads as a denaturing agent. Generally, contact of blood plasma with glass surfaces results in activation or denaturation. […].

Row | SMILES | appearance of the tubes following glass bead treatment
1 | NCCCC[C@H](N)C(=O)O.O=C(O)CC(O)(CC(=O)O)C(=O)O [Lysine Citrate, lysine citrate] | unchanged
2 | O=C([O-])CC(O)(CC(=O)[O-])C(=O)[O-].[Na+].[Na+].[Na+] [Na Citrate, sodium citrate, reference compound] | slightly cloudy
